Experimental data from PubChem BioAssay AID2685 (National Center for Advancing Translational Sciences (NCATS), 2010).
This is one part of the list. Shown are side measurements of this screen, not its main read-out; they come without a call. The list favours compounds with an active or inconclusive main result. Words in brackets tell the shape of the fitted curve; partial curves, single points and poor fits give uncertain potencies.

Test: qHTS Assay for Lipid Storage Modulators in Drosophila S3 Cells;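 as to cell number change: cells counted by Cell Tracker Red CMTPX staining in the red channel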
Details: BODIPY lipid droplet fluorescence, 18-24 h; for cell number change: measured here: cell count max response, cells fed with added oleic acid
Outline: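 Laser-scanning cytometry quantifies lipid droplet accumulation (500–530 nm total intensity; droplet/cell object ratio) in oleic acid-fed (400 uM added) Drosophila S3 cells treated with a concentration series. 20 uM Triacsin C defined 100% inhibition.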

[1] = measured here: cell number channel AC50, cells fed with added oleic acid
[2] = measured here: lipid fluorescence (Fed channel) AC50, cells fed with added oleic acid

Structure (SMILES) | cell number change | AC50 [1] | AC50 [2]
COc1ccc(C)cc1-n1nnnc1SCC(=O)Nc1cccnc1Cl | 50% | 20.6 µM [rising, single point] | –
COc1cc2cc(C(=O)O)[nH]c2c(OC)c1OC | 5.9% | – | 0.184 µM [rising, full curve]
O=C(NCCCN1CCCC1=O)c1ccc2c(c1)NC(=O)C(N1CCOCC1)S2 (stereo not given) | -3.53% | 0.103 µM [falling, full curve, poor fit] | –
O=C(O)c1ccc(Oc2c(C(F)(F)F)oc3cc(O)ccc3c2=O)cc1 | -54.8% | 0.13 µM [falling, full curve, poor fit] | 0.13 µM [falling, full curve, poor fit]
COc1ccc(C2=NN(C(=O)c3cccnc3)C(c3ccccc3)C2)cc1 (stereo not given) | -0.725% | – | 0.116 µM [rising, partial curve, poor fit]
CC(C)[C@@H](C(=O)OCC(=O)Nc1ccc2c(c1)OCO2)N1C(=O)c2ccccc2C1=O | 52.9% | 0.058 µM [rising, full curve] | 0.0651 µM [rising, full curve, poor fit]
Cc1ccc(S(=O)(=O)n2c3ccc(Cl)cc3c3nc(C)sc32)cc1 | 36.7% | 8.2 µM [rising, partial curve] | 32.6 µM [falling, single point]
CC1(C2CC2)NC(=O)N(CC(=O)NCc2ccc(Cl)cc2Cl)C1=O (stereo not given) | -1.88% | – | 6.51 µM [rising, single point]
COc1cc(OC)c(N(C)S(=O)(=O)c2cccc(C(=O)Nc3nnc(C4CC4)s3)c2)cc1Cl | – | – | 1.16 µM [rising, single point]
CN(Cc1ccccc1)S(=O)(=O)c1ccc(N2CCCC2=O)cc1 | -16.6% | – | –
COc1ccc(C)cc1NC(=O)C(OC(=O)c1ccc([N+](=O)[O-])o1)c1ccccc1 (stereo not given) | 12.5% | 0.731 µM [rising, single point] | 29.1 µM [rising, single point]
CCOC(=O)C1=NN(C(=O)COc2ccccc2)C(O)(c2ccc(Br)cc2)C1 (stereo not given) | -1.79% | 6.51 µM [falling, single point] | 4.11 µM [falling, single point]
O=C(O)CCCNC(=O)/C(=C\c1ccc(Cl)cc1)NC(=O)c1ccccc1Br | 45.5% | 10.3 µM [rising, partial curve] | –
COc1ccc(NC(=O)C2=C(C)Nc3nc(CCCO)nn3C2c2ccc(OC)c(OC)c2)cc1 (stereo not given) | -5.73% | – | –
COc1cc(C(=O)OCC(=O)c2cc(C)n(C)c2C)cc(NC(=O)c2ccco2)c1OC | 7.16% | – | 0.116 µM [rising, full curve, poor fit]
Cc1ccc2c(c1)-c1nc3ccccc3cc1C2=NC1CCCCC1 | -62% | 29.1 µM [falling, single point] | –
Cc1ccc(Cn2ncc3c(NN)ncnc32)cc1 | -44.1% | 2.31 µM [rising, partial curve] | –
CCc1ccc(N2CSC3=C(C#N)C(c4cccs4)CC(=O)N3C2)cc1 (stereo not given) | -1.08% | – | 4.11 µM [rising, partial curve, poor fit]
CCOC(=O)C1=C(C)NC(C)=C(C(=O)OCC)C1C(=O)OCC(=O)NC(C)c1ccccc1 (stereo not given) | 4.53% | – | 0.82 µM [falling, partial curve, poor fit]
CCCn1cc([C@@H]2C[C@H]3CN(Cc4cccc(Cl)c4)C(=O)[C@]34CCCN24)c(C)n1 | 2.69% | – | 3.66 µM [falling, partial curve, poor fit]
COc1ccc2c(c1)O[C@H](c1ccc3c(c1)OCO3)[C@@H](O)C2=O | -0.132% | – | 0.92 µM [rising, partial curve]
Cc1ccc(NC(=O)CSc2nnc([C@@H]3CCCN3C(=O)OC(C)(C)C)o2)c(C)c1 | 14.5% | 0.103 µM [rising, full curve, poor fit] | –
CO/N=C\CC(=O)Nc1ccc(Cl)c(Cl)c1 | 15.1% | 0.13 µM [falling, full curve, poor fit] | 0.146 µM [falling, full curve, poor fit]
NNc1nc2c(-c3cccc(C(F)(F)F)c3)nnn2c2ccccc12 | -30.7% | 18.4 µM [falling, partial curve] | 18.4 µM [falling, partial curve]
CCn1c(SCc2nc3ccccc3[nH]2)nnc1-c1ccncc1 | 3.17% | – | 14.6 µM [rising, partial curve, poor fit]
C=CCn1c(COc2ccc(F)cc2)nnc1SCC(=O)NC(=O)NCc1ccco1 | -17.6% | 4.61 µM [falling, partial curve, poor fit] | –
CN(CC(=O)Nc1ccc(OC(F)(F)F)cc1)C1CCCCC1 | 1.21% | 0.116 µM [falling, full curve, poor fit] | 0.103 µM [falling, full curve, poor fit]

Complete entries as entered above. Order of values: cell number change	AC50 [1]	AC50 [2]
CN(Cc1ccccc1)S(=O)(=O)c1ccc(N2CCCC2=O)cc1 is listed as -16.6%	–	–
CCc1ccc(N2CSC3=C(C#N)C(c4cccs4)CC(=O)N3C2)cc1 (stereo not given) is listed as -1.08%	–	4.11 µM [rising, partial curve, poor fit]
COc1cc2cc(C(=O)O)[nH]c2c(OC)c1OC is listed as 5.9%	–	0.184 µM [rising, full curve]

(next part)

Structure (SMILES) | cell number change | AC50 [1] | AC50 [2]
COc1cc(NC(C)CCc2ccccc2)cc(OC)c1OC (stereo not given) | -39.7% | 14.6 µM [falling, partial curve, poor fit] | –
COCc1cc(=O)[nH]c2cc(NC(=O)C3CC3)c(C)cc12 | 60.5% | 29.1 µM [rising, single point] | 0.82 µM [rising, single point]
COc1cccc2cc(C(=O)C3=C(O)C(=O)N(CCCN(C)C)C3c3ccncc3)oc12 (stereo not given) | – | 6.51 µM [rising, partial curve, poor fit] | 1.64 µM [falling, full curve]
CCCCCn1c2c(c(=N)c3ccccc31)CCC2 | -52.6% | 32.6 µM [falling, single point] | 29.1 µM [falling, single point]
COc1cc(OC)c(C(=O)Nc2cccc(C(C)=O)c2)cc1OC | – | 0.326 µM [rising, full curve] | 0.146 µM [rising, full curve, poor fit]
Cc1nn2c(Nc3ccccc3)c3c(nc2c1-c1ccccc1)CCC3 | -31.5% | 29.1 µM [falling, single point] | 32.6 µM [falling, single point]
Cc1cc(SCC(=O)NN=C2CCN(C(C)C)CC2)c(C)cc1Br | 6.58% | – | 5.17 µM [rising, partial curve, poor fit]
COc1ccc(CN(C)S(=O)(=O)c2nnc(NC(=O)c3ccc(C)cc3)s2)cc1OC | -7.41% | – | 0.0058 µM [rising, full curve, poor fit]
CN(C)CC(C)(C)CNS(=O)(=O)c1cccc2nsnc12 | -21.6% | – | 5.8 µM [falling, partial curve, poor fit]
CC(=O)N1CCSc2ccc(S(=O)(=O)NCc3ccc(F)cc3)cc21 | -31.6% | 29.1 µM [falling, single point] | 3.26 µM [falling, partial curve]
COc1ccc(C(=O)CN2CCN(c3ncccn3)CC2)cc1 | -19.8% | – | 25.9 µM [falling, partial curve]
CCc1c(C(=O)Nc2ccccc2C(N)=O)csc1C | 3.52% | 6.51 µM [rising, single point] | –
O=C(Cn1ncn2c(cc3ccccc32)c1=O)NCCc1cccs1 | -16.5% | – | 4.11 µM [rising, full curve, poor fit]
O=C(CCc1ccccc1O)NC1CCCc2ccccc21 (stereo not given) | -20.8% | – | –
Cc1noc(C)c1COc1ccc(C(=O)N2CCCC(C(N)=O)C2)cc1 (stereo not given) | 28.4% | – | 5.17 µM [rising, full curve, poor fit]
O=C(NCC(=O)N(c1ccccc1)C(C(=O)NC1CCCC1)c1ccncc1)c1cccs1 (stereo not given) | – | – | 0.0517 µM [falling, full curve, poor fit]
O=C(COC(=O)CSCC(=O)N1CCCCC1)NCc1ccc(F)cc1 | -0.147% | – | 1.84 µM [falling, full curve]
O=C(CCN1CCN(Cc2ccccc2)CC1)Nc1ccc(OCc2ccccc2)cc1 | -29.4% | – | 0.82 µM [falling, full curve, poor fit]
O=[N+]([O-])c1cc(C(F)(F)F)ccc1Sc1ccc2ccccc2n1 | 6.14% | 0.731 µM [rising, single point] | 0.58 µM [rising, single point]
CNc1nc2ccccc2n1CC(=O)c1ccccc1 | 6.32% | – | 0.58 µM [rising, single point]
Cn1cc(Br)c(C(=O)Nc2sc3c(c2C(N)=O)CCCC3)n1 | -13.2% | – | 0.112 µM [rising, full curve, poor fit]
CC(C)c1ccc2oc(=O)cc(CN3CCCCC3)c2c1 | -7.56% | – | 18.4 µM [falling, single point]
CCCCCCn1nc(C(=O)OCC(=O)c2c(N)n(C)c(=O)n(C)c2=O)c2ccccc2c1=O | -17% | – | 32.6 µM [falling, single point]
O=C(Cc1noc2ccccc12)Nc1ccc(Cl)cc1 | 6.37% | – | 0.0326 µM [rising, full curve, poor fit]
O=C(O)COc1ccc(S(=O)(=O)NCCc2ccccc2)cc1 | -26.3% | – | 18.4 µM [falling, single point]
Cc1cccc(C)c1NC(=O)CNC(=O)c1cncc(Br)c1 | 7.89% | – | –
Cc1ccc(S(=O)(=O)N[C@H](C(=O)Oc2ccc3c(C(F)(F)F)cc(=O)oc3c2)c2ccccc2)cc1 | 147% | 0.13 µM [rising, full curve, poor fit] | –
